These are yes or no findings as the source states them, for the method shown. Some entries that bind do so weakly or less than the wild type. Where a sequence is shown, tags or fusion partners need not be part of it.
Assays:
[1] = molecular target: T1, Tim-1 naturally expressed on activated mouse T cells (SJL/J CD3+ T cells; DO11.10 TH1 and TH2 cells) (mouse) (UniProt Q5QNS5); experiment: flow cytometry on activated, in vitro-polarized DO11.10 TH1 and TH2 cells (FIG. 15C, 15D)
T1 sequence: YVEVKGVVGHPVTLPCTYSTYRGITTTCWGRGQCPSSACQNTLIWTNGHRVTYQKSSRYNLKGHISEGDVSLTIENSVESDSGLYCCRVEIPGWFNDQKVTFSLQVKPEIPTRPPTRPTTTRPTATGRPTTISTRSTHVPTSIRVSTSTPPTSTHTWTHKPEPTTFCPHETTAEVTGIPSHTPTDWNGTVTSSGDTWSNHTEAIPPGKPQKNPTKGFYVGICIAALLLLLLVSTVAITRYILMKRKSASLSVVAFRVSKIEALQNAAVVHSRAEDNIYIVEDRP

[2] = molecular target: T2, Tim-1 on CHO-Tim-1 transfectants (CHO-K1 cells transfected with pEF6 containing murine Tim-1 cDNA) (murine) (UniProt Q5QNS5); experiment: summary of the experimental section; flow cytometry with Ig fusion polypeptides
T2 sequence: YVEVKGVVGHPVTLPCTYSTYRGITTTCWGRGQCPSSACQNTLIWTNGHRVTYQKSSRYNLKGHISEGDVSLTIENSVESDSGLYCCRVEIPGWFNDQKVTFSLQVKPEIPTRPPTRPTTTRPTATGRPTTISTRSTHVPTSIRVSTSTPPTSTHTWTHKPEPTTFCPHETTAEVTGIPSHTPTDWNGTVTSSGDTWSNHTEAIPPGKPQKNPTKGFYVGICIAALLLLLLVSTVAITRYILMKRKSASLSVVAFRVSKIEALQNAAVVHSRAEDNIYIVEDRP

[3] = molecular target: T1, Tim-1 naturally expressed on activated mouse T cells (SJL/J CD3+ T cells; DO11.10 TH1 and TH2 cells) (mouse); experiment: flow cytometry on activated TH1 and TH2 cells
[4] = molecular target: T2, Tim-1 on CHO-Tim-1 transfectants (CHO-K1 cells transfected with pEF6 containing murine Tim-1 cDNA) (murine); experiment: flow cytometry on CHO and HEK293 transfectants (legend of FIG. 14)
[5] = molecular target: T2, Tim-1 on CHO-Tim-1 transfectants (CHO-K1 cells transfected with pEF6 containing murine Tim-1 cDNA) (murine); experiment: flow cytometry, cell surface staining of CHO transfectants (FIG. 14A)
[6] = molecular target: T1, Tim-1 naturally expressed on activated mouse T cells (SJL/J CD3+ T cells; DO11.10 TH1 and TH2 cells) (mouse); experiment: flow cytometry on anti-CD3/anti-CD28 activated CD3+ T cells (FIG. 15A)
[7] = molecular target: T1, Tim-1 naturally expressed on activated mouse T cells (SJL/J CD3+ T cells; DO11.10 TH1 and TH2 cells) (mouse); experiment: flow cytometry on activated T cells (legend of FIG. 15)
[8] = molecular target: T2, Tim-1 on CHO-Tim-1 transfectants (CHO-K1 cells transfected with pEF6 containing murine Tim-1 cDNA) (murine); experiment: flow cytometry on CHO transfectants

Measured: binding

B1: Tim-4-Ig (soluble Ig fusion polypeptide: extracellular IgV and mucin domains of Tim-4 fused to a human IgG1 Fc tail) (Fc fusion)
chain: FLGQPVTLPCHYLSWSQSRNSMCWGKGSCPNSKCNAELLRTDGTRIISRKSTKYTLLGKVQFGEVSLTISNTNRGDSGVYCCRIEVPGWFNDVKKNVRLELRRATTTKKPTTTTRPTTTPYVTTTTPELLPTTVMTTSVLPTTTPPQTLATTAFSTAVTTCPSTTPGSFSQETTKGSAITTESETLPASNHSQRSMMTISTDIAVLRPTGSNPGILPSTSQLTTQKTTLTTSESLQKTTKSHQINSRQTIL
notes: Made by Chimerigen; also called tim-4:Ig fusion; not shown: human IgG1 Fc tail
binds: all assays above

Source: patent publication US20110045002A1 (BRIGHAM AND WOMEN S HOSPITAL, published 2011)
